These are yes or no findings as the source states them, for the method shown. Binding can be weak; no strength is given. For some assays here: Where a sequence is shown, tags or fusion partners need not be part of it. For some assays here: Binding seen in cells or lysates may run through a third protein.
Experiments:
[1] = molecular target: T1, Bombyx ecdysone receptor EcR-B1, CytoTrap two-hybrid fusion (Bombyx mori (silkworm)) (UniProt P49881); experiment: two-hybrid; CytoTrap system (Stratagene) in yeast cdc25H; bait fused to human Sos, prey fused to a myristoylation signal under the GAL1 promoter; growth at restrictive temperature on galactose medium; more colonies mean a stronger association
T1 sequence: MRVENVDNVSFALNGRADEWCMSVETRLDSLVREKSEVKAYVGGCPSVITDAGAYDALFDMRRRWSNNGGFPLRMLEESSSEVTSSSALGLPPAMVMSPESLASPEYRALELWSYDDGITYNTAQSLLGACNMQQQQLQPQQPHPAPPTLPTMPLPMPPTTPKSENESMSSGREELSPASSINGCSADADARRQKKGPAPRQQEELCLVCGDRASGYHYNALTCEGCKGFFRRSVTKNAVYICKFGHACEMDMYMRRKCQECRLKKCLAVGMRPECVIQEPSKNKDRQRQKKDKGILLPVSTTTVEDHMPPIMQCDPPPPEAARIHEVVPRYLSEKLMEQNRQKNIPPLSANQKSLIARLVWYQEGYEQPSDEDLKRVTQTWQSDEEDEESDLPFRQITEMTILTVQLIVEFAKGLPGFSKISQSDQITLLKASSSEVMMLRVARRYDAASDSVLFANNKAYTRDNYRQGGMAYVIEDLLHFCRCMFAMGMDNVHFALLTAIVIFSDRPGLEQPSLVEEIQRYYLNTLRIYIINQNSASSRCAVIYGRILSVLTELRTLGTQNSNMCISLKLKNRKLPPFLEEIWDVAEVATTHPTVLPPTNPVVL

[2] = molecular target: T2, Bombyx ultraspiracle USP1, CytoTrap two-hybrid fusion (Bombyx mori (silkworm)) (UniProt P49700); experiment: as above
T2 sequence: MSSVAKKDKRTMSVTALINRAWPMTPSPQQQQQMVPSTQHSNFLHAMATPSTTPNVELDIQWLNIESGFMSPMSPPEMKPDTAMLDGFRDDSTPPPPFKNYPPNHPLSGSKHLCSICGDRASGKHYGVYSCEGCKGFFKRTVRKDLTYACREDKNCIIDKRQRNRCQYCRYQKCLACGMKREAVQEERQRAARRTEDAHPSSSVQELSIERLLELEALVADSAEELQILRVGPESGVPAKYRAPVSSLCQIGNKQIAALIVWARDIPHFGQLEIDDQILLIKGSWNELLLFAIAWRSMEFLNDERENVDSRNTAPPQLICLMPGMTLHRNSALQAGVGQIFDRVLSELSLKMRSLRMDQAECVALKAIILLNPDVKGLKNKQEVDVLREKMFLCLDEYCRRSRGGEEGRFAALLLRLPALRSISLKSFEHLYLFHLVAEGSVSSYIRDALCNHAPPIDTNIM

[3] = molecular target: T3, FLAG-USP (Bombyx ultraspiracle) (Bombyx mori (silkworm)) (UniProt P49700); experiment: native gel or EMSA; HA-EcR, FLAG-USP, V5-Met1 and cMyc-Met2 co-transfected into HEK 293 cells; nuclear extract (15 ug) bound to biotin-labeled EcRE, 5% nondenaturing PAGE; supershift by V5 or cMyc antibody
T3 sequence: T2 sequence

[4] = molecular target: T4, HA-EcR (Bombyx EcR-B1) (Bombyx mori (silkworm)) (UniProt P49881); experiment: as above
T4 sequence: T1 sequence

[5] = molecular target: T3, FLAG-USP (Bombyx ultraspiracle) (Bombyx mori (silkworm)); experiment: co-IP; HA-EcR, FLAG-USP and V5-Met1 co-transfected into human HEK 293 cells, with or without 1 uM 20E for 6 hr; NP-40 lysis buffer; FLAG, V5 or cMyc antibody or IgG for 4 hr, protein G overnight at 4°C; Western blot
[6] = molecular target: T4, HA-EcR (Bombyx EcR-B1) (Bombyx mori (silkworm)); experiment: as above
[7] = molecular target: Bombyx MET2 (Methoprene-tolerant 2), CytoTrap two-hybrid fusion (Bombyx mori (silkworm)) (UniProt B0LL82); experiment: two-hybrid; CytoTrap system (Stratagene) in yeast cdc25H; bait fused to human Sos, prey fused to a myristoylation signal under the GAL1 promoter; growth at restrictive temperature on galactose medium; more colonies mean a stronger association

| Substance | binding [1] | binding [2] | binding [3] | binding [4] | binding [5] | binding [6] | binding [7] |
| --- | --- | --- | --- | --- | --- | --- | --- |
| Bombyx MET2 (Methoprene-tolerant 2), CytoTrap two-hybrid fusion (from UniProt B0LL82) | binds | binds | – | – | – | – | – |
| V5-MET1 (Bombyx MET1) | – | – | binds | binds | binds | binds | – |
| cMyc-MET2 (Bombyx MET2) | – | – | binds | binds | – | – | – |
| Bombyx MET1 (Methoprene-tolerant 1), CytoTrap two-hybrid fusion (from UniProt B0LL81) | binds | binds | – | – | – | – | binds weakly |

From publication PMC3531340
